According to patent US8039456B2, “Method of stimulating the motility of the gastrointestinal system using ipamorelin” (Helsinn Therapeutics (U.S.), Inc., priority 2004, dated 2011):
Not every detail of the peptide structures is certain; ends, links or a residue may be inferred. At least one compound was matched to its structure with a doubt left. Square brackets hold non-standard residues; d marks the D form. Peptide text beside a SMILES is read from it. d2Nal = N[C@H](Cc1ccc2ccccc2c1)C(=O)O; Aib = CC(C)(N)C(=O)O

System: rat model of post-operative ileus
Test: Gastric emptying (phenol red) after i.v. injection, ipamorelin compared to RC-1139, rat model of post-operative ileus (Example 5)
Type: in vivo
Experimental: Ipamorelin was evaluated in a rat model of post-operative ileus in comparison to RC-1139, a ghrelin mimetic with known gastrokinetic efficacy. Treatment groups were as follows.
All animals were examined twice daily for mortality and signs of ill health or reaction to treatment (except on the day of arrival and necropsy when the animals were examined once). Individual body weights were measured at randomization and on the day prior to dosing (for dose calculation purposes only).
All treatment procedures were replicated over two consecutive days with approximately equal numbers of animals from each group treated on each day. Food was withdrawn from animals overnight prior to surgery. On the day of surgery animals were anesthetized with isoflurane gas and a bland ophthalmic lubricant was applied to each eye. The animals were prepared for surgery by shaving of the entire abdominal region. The shaved area was cleaned and disinfected appropriately prior to incision. Using a scalpel blade, the abdomen was opened and the cecum localized. The cecum was exteriorized and manipulated for approximately one minute (i.e. gently patted between hands in saline-soaked gauze). Thereafter, the cecum was repositioned and the surgical site closed using absorbable suture material (interrupted sutures) and staples. Animals were then returned to their home cage to permit recovery from the anesthesia.
Animals were dosed immediately following the oral gavage dose of phenol red. The test/control articles and reference article were administered by intravenous injection (given as a slow bolus injection over a period of ca. 100 seconds) into the tail vein using a syringe and appropriate gauge needle. The dose volume was 5 mL/kg and the actual dose administered was based on the most recent body weight of each animal.
Prior to dosing of the phenol red, the animals were water deprived. At approximately 30 minutes post-surgery, animals received 0.4 mL of phenol red by oral gavage, then dosed with the test article, and then, approximately 30 minutes later, were euthanized. […]

## CC(C)(N)C(=O)N[C@@H](Cc1c[nH]cn1)C(=O)N[C@H](Cc1ccc2ccccc2c1)C(=O)N[C@H](Cc1ccccc1)C(=O)N[C@@H](CCCCN)C(N)=O [ipamorelin, α-Methylalanine-L-histidine-D-β-(2-naphthyl)-alanine-D-phenylalanine-L-lysinamide] (H-[Aib]H[d2Nal][dF]K-NH2)
0.25 mg/kg i.v.
  reduction in phenol red content: approximately 50%
1 mg/kg i.v.
  emptying: approximately 21%
2.5 mg/kg i.v.
  reduction in phenol red content: ~60%
